Reference: publication doi:10.1101/2022.05.10.491326

Key:
Assay in all cases: affinity purification with mass spectrometry
[1] = target: EIF4E2-PTP (Trypanosoma brucei) (UniProt Q387Q8)
[2] = target: EIF4E3-PTP (Trypanosoma brucei) (UniProt Q383A4)
[3] = target: EIF4E5-PTP (Trypanosoma brucei) (UniProt Q38B99)
[4] = target: EIF4E6-PTP (Trypanosoma brucei) (UniProt Q57V43)

Substance | binding [1] | binding [2] | binding [3] | binding [4]
SLBP2 (from UniProt Q57WX0) | binds | – | – | –
putative guanosine monophosphate reductase (Tb927.5.2080) (from UniProt Q57ZS7) (enzyme) | – | binds | – | –
EIF4E3 (from UniProt Q383A4) | – | – | binds | no binding
Tb927.10.14700 (from UniProt Q388D4) | – | binds | – | binds
Tb927.8.4560 (from UniProt Q57UZ5) | – | – | binds | –

Results are given in words; binding and its absence hold for the method and conditions named. Binding seen in cells or lysates may run through a third protein. These calls come from enrichment with a bait or labelling near it, and not all partners need be listed. For some of these results: No binding means not detected with the bait.
